Experimental data reported in publication PMC11871635.
No constants are given. Whether binding was seen depends on the method and setting. In cells and extracts the contact can be indirect. Some binding calls cover weakened binding; strength is not graded here.

Sequences of proteins named here, by UniProt entry; tags and fusion partners are left off.
UniProt Q13950: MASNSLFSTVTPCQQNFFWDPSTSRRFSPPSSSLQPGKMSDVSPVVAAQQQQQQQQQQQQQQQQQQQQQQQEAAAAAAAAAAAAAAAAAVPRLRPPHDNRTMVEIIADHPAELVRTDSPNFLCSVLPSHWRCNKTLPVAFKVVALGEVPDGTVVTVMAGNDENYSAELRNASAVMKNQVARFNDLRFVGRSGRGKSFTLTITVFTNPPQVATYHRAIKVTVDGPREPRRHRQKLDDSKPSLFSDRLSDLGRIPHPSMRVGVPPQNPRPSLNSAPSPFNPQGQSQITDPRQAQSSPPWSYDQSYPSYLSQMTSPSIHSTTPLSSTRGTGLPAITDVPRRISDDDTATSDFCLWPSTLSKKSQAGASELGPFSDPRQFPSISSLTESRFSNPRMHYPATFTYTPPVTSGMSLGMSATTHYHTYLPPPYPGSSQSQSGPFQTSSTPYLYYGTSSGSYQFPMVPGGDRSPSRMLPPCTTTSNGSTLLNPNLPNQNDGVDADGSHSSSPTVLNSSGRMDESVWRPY
UniProt P41212: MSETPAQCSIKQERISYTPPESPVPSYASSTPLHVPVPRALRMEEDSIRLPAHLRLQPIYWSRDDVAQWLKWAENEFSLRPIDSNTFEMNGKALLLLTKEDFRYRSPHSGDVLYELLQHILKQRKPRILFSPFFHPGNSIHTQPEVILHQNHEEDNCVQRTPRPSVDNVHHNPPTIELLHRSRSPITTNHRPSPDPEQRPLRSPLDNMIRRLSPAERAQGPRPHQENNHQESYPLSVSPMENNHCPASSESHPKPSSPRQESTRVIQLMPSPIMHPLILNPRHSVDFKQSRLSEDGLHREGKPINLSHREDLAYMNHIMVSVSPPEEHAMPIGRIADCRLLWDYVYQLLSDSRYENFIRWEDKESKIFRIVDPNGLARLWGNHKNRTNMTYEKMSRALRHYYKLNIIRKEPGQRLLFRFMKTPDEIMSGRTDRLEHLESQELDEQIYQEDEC
UniProt P32519: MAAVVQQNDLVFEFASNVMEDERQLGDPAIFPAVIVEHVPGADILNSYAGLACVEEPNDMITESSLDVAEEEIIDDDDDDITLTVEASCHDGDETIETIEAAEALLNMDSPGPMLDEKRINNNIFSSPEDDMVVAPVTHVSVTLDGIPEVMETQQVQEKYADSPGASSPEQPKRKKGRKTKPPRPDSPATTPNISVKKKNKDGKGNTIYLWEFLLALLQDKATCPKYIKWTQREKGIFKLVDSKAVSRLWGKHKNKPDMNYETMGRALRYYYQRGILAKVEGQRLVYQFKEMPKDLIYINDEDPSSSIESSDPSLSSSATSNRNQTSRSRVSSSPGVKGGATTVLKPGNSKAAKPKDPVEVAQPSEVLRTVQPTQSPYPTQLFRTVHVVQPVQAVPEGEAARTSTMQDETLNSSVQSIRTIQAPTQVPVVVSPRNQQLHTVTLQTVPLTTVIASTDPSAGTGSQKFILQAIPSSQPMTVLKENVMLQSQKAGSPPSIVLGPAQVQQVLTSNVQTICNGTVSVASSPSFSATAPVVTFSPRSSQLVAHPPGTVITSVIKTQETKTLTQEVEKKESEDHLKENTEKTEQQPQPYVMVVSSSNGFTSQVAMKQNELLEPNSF
UniProt Q14814: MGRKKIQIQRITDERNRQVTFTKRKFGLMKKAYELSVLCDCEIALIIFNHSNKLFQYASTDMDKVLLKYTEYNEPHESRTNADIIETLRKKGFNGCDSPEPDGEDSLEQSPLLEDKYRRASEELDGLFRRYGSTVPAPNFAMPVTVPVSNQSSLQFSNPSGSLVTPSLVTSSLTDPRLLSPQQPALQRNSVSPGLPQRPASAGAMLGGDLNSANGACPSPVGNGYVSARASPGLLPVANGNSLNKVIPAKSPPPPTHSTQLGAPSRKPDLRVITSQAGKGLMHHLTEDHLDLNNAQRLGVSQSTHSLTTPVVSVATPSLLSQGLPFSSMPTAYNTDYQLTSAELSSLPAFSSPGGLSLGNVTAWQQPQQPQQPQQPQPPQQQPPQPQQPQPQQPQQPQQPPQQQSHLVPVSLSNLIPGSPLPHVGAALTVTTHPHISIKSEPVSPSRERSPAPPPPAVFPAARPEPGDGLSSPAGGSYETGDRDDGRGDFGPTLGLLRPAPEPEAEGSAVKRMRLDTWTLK

Target: T1, Interferon regulatory factor 1 (human (endogenous in MV4-11 and Kasumi-1)) (UniProt P10914)
T1 sequence: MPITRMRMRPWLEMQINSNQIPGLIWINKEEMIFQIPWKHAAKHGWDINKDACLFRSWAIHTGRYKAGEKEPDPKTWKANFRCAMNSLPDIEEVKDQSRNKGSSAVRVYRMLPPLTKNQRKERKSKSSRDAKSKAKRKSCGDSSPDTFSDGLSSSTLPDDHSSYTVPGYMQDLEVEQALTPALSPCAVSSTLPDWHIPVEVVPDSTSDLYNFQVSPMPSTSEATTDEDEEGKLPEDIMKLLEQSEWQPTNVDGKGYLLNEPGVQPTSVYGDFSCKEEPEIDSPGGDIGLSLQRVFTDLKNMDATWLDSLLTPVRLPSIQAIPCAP
Assay: co-IP; IRF1 antibody and MAg25K/Protein A/G magnetic beads added to cell lysates, overnight at 4 C, washed, eluted, Western blot; MV4-11 and Kasumi-1 cells

Substance | binding
RUNX2 (from UniProt Q13950 1-521) | binds
ETV6 (from UniProt P41212 1-452) | binds
ELF1 (from UniProt P32519 1-619) | binds
MEF2D (from UniProt Q14814 1-521) | binds
